In PMC8816719 one finds binding data, which are given here for 17 molecules.

Chains of the proteins cited; added tags and fusions are not shown. Lines headed by an entry give the natural chain unless they say otherwise; changes in a name come on top. Residues count along the entry.
UniProt O95994, residues 21-175: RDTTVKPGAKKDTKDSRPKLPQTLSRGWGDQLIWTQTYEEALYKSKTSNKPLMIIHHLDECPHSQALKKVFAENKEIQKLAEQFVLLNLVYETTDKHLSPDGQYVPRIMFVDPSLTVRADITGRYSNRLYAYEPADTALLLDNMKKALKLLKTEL
UniProt O75947: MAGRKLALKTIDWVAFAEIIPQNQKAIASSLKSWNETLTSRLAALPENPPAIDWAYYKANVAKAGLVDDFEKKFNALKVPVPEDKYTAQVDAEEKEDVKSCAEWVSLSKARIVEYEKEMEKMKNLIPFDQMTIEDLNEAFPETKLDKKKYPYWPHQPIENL
UniProt P27824, residues 21-592: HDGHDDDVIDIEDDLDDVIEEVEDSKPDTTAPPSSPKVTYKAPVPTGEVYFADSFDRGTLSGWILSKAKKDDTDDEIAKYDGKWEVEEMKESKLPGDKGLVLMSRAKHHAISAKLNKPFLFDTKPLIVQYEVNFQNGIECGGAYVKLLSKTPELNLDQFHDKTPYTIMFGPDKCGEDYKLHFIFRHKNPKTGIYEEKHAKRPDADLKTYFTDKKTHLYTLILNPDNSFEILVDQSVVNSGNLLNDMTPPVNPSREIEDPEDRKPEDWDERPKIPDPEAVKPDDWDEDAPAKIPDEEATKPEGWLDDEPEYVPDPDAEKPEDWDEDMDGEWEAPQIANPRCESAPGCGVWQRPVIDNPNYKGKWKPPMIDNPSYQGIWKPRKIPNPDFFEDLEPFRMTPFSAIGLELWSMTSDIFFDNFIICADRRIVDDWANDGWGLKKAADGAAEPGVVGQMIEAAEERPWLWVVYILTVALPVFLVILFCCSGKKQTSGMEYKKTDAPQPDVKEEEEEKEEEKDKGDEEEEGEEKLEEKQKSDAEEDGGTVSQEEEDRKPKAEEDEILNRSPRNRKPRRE
UniProt Q9NYU2, residues 43-1555: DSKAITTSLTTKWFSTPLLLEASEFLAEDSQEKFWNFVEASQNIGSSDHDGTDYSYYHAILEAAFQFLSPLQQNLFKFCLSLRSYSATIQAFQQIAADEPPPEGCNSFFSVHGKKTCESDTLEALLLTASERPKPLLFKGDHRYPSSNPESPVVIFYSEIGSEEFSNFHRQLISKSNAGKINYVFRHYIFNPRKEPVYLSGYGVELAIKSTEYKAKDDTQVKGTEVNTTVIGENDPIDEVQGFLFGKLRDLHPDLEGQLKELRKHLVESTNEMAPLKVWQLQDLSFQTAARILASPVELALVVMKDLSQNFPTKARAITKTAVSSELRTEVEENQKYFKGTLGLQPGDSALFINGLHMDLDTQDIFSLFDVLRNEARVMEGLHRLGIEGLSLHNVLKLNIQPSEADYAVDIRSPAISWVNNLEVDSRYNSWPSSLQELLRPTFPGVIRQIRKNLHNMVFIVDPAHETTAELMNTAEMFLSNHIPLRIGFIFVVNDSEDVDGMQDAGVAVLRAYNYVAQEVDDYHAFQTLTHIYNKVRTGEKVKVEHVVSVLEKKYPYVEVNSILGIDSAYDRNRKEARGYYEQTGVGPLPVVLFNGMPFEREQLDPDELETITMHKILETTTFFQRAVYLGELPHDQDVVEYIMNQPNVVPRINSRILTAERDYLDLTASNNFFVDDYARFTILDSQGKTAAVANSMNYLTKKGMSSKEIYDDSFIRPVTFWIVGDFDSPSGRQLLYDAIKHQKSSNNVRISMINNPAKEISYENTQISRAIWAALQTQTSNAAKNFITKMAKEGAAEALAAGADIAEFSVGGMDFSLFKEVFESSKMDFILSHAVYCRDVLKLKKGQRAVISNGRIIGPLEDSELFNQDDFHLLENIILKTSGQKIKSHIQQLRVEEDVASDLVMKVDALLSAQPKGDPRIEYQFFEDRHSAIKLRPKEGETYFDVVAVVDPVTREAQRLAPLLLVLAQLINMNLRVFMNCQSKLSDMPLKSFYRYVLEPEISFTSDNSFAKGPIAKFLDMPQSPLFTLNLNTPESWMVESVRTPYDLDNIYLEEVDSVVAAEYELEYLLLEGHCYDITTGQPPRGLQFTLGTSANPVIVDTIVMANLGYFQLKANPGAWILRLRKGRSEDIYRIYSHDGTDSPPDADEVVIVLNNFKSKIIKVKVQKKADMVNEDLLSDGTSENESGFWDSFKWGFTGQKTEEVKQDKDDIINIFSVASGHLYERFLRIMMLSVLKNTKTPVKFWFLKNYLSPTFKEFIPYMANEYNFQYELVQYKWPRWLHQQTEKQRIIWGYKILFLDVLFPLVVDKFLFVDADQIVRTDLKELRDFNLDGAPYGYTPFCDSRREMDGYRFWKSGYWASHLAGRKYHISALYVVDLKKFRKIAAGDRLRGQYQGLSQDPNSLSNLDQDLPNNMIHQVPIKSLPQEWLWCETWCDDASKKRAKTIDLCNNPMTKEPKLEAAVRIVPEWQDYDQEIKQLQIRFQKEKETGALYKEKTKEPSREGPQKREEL
UniProt P12270: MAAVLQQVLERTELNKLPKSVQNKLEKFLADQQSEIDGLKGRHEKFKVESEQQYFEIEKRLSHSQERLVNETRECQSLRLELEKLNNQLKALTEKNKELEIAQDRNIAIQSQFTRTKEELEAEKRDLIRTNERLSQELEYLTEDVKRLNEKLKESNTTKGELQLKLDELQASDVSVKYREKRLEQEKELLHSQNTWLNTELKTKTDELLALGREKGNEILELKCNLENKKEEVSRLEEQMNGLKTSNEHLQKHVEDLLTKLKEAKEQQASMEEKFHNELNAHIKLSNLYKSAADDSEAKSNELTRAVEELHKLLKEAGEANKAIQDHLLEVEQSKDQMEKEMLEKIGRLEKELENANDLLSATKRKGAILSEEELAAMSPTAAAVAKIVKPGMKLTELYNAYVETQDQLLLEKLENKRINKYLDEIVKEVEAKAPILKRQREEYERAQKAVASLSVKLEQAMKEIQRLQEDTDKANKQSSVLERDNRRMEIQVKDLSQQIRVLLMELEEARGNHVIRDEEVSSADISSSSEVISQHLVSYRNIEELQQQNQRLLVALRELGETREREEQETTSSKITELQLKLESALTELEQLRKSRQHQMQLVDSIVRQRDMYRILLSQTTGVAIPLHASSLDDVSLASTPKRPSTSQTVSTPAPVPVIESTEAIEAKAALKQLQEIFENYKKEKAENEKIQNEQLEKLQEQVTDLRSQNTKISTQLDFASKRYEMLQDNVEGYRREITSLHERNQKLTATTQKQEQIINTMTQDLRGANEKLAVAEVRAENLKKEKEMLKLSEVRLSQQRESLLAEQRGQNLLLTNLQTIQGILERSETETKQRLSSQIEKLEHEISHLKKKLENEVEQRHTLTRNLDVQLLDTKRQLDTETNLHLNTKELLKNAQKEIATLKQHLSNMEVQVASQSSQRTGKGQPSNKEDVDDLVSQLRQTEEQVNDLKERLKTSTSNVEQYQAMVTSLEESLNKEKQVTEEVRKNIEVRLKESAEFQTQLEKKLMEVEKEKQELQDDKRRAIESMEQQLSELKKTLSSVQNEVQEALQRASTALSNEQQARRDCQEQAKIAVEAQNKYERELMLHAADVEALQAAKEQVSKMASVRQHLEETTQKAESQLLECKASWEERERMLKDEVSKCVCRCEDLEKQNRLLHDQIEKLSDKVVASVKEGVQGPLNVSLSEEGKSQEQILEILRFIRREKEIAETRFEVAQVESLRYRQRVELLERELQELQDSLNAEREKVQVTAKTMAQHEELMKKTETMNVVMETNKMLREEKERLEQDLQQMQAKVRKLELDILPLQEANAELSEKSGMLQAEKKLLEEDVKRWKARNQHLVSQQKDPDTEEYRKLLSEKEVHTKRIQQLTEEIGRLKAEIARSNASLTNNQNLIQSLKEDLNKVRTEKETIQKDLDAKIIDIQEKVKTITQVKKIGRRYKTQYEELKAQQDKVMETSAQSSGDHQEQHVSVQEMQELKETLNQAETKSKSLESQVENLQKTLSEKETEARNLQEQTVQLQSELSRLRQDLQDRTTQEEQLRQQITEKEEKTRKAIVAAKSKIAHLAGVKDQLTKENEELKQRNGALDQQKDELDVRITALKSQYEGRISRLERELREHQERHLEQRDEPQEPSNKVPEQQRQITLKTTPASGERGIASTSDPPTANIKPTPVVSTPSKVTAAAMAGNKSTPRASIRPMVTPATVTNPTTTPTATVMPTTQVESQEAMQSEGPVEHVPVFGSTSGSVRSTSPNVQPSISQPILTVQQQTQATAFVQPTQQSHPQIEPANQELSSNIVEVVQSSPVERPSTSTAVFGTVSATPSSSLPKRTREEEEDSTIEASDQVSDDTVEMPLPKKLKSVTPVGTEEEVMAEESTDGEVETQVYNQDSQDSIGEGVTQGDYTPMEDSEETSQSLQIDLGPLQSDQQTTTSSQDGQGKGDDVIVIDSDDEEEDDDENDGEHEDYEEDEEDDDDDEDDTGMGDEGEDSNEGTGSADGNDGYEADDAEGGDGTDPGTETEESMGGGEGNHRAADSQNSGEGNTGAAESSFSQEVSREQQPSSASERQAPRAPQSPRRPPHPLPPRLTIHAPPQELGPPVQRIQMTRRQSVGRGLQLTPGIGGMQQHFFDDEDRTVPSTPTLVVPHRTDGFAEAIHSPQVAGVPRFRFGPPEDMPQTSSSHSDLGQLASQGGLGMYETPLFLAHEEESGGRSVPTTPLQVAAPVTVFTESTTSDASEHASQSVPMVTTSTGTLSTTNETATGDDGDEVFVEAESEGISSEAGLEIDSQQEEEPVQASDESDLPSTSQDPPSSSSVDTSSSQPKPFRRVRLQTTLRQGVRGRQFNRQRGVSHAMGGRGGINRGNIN
UniProt P07355: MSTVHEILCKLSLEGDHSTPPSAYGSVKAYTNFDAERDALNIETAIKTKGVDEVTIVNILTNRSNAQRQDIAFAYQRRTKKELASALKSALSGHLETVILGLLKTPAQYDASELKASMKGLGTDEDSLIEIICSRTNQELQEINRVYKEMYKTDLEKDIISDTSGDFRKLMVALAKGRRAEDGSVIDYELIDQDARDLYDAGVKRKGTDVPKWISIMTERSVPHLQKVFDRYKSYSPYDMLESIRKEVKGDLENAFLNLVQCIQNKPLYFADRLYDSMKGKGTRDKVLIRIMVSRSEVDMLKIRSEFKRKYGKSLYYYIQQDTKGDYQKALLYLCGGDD
UniProt Q8NBS9, residues 33-432: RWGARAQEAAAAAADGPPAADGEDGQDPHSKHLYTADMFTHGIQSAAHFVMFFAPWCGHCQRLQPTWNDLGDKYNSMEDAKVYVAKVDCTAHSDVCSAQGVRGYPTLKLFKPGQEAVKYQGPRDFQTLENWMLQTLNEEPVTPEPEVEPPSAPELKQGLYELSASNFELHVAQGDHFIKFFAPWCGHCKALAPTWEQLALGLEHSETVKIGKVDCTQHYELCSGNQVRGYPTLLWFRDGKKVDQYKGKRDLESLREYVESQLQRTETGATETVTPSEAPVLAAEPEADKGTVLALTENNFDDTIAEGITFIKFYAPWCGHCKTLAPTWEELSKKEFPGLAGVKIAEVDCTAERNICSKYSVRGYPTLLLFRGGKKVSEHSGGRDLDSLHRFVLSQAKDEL
UniProt P23284, residues 34-216: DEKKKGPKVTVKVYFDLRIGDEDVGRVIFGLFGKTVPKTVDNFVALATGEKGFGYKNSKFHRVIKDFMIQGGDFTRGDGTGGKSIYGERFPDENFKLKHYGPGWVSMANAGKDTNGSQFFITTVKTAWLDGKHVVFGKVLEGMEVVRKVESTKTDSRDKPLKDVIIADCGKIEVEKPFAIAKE
UniProt P07237, residues 18-508: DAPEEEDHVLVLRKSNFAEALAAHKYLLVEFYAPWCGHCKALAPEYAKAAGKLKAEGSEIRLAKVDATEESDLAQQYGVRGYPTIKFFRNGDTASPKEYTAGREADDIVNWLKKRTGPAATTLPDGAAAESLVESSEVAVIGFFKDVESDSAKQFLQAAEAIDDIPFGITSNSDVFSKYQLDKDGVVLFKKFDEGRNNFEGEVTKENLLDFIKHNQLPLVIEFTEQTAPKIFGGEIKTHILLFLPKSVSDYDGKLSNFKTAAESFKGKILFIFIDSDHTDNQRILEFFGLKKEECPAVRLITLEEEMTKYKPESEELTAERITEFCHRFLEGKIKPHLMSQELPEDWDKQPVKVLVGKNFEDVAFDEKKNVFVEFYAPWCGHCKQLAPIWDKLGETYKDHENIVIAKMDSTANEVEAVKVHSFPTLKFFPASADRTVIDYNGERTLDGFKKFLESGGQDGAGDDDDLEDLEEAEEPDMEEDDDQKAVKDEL

These are yes or no findings as the source states them, for the method shown. Binding seen in cells or lysates may run through a third protein. Here binding means that the protein was enriched with, or labelled near, the bait; the list need not be complete.

The labels stand for the following.
B1: CMC2 (protein, UniProt Q9UJS0 1-675)
chain: MAAAKVALTKRADPAELRTIFLKYASIEKNGEFFMSPNDFVTRYLNIFGESQPNPKTVELLSGVVDQTKDGLISFQEFVAFESVLCAPDALFMVAFQLFDKAGKGEVTFEDVKQVFGQTTIHQHIPFNWDSEFVQLHFGKERKRHLTYAEFTQFLLEIQLEHAKQAFVQRDNARTGRVTAIDFRDIMVTIRPHVLTPFVEECLVAAAGGTTSHQVSFSYFNGFNSLLNNMELIRKIYSTLAGTRKDVEVTKEEFVLAAQKFGQVTPMEVDILFQLADLYEPRGRMTLADIERIAPLEEGTLPFNLAEAQRQKASGDSARPVLLQVAESAYRFGLGSVAGAVGATAVYPIDLVKTRMQNQRSTGSFVGELMYKNSFDCFKKVLRYEGFFGLYRGLLPQLLGVAPEKAIKLTVNDFVRDKFMHKDGSVPLAAEILAGGCAGGSQVIFTNPLEIVKIRLQVAGEITTGPRVSALSVVRDLGFFGIYKGAKACFLRDIPFSAIYFPCYAHVKASFANEDGQVSPGSLLLAGAIAGMPAASLVTPADVIKTRLQVAARAGQTTYSGVIDCFRKILREEGPKALWKGAGARVFRSSPQFGVTLLTYELLQRWFYIDFGGVKPMGSEPVPKSRINLPAPNPDHVGGYKLAVATFAGIENKFGLYLPLFKPSVSTSKAIGGGP
B2: TPP1 (protein, UniProt O14773 196-563)
chain: LHLGVTPSVIRKRYNLTSQDVGSGTSNNSQACAQFLEQYFHDSDLAQFMRLFGGNFAHQASVARVVGQQGRGRAGIEASLDVQYLMSAGANISTWVYSSPGRHEGQEPFLQWLMLLSNESALPHVHTVSYGDDEDSLSSAYIQRVNTELMKAAARGLTLLFASGDSGAGCWSVSGRHQFRPTFPASSPYVTTVGGTSFQEPFLITNEIVDYISGGGFSNVFPRPSYQEEAVTKFLSSSPHLPPSSYFNASGRAYPDVAALSDGYWVVSNRVPIPWVSGTSASTPVFGGILSLINEHRILSGRPPLGFLNPRLYQQHGAGLFDVTRGCHESCLDEEVEGQGFCSGPGWDPVTGWGTPNFPALLKTLLNP
B3: Malate dehydrogenase, mitochondrial (protein, UniProt P40926 25-338)
chain: AKVAVLGASGGIGQPLSLLLKNSPLVSRLTLYDIAHTPGVAADLSHIETKAAVKGYLGPEQLPDCLKGCDVVVIPAGVPRKPGMTRDDLFNTNATIVATLTAACAQHCPEAMICVIANPVNSTIPITAEVFKKHGVYNPNKIFGVTTLDIVRANTFVAELKGLDPARVNVPVIGGHAGKTIIPLISQCTPKVDFPQDQLTALTGRIQEAGTEVVKAKAGAGSATLSMAYAGARFVFSLVDAMNGKEGVVECSFVKSQETECTYFSTPLLLGKKGIEKNLGIGKVSSFEEKMISDAIPELKASIKKGEDFVKTLK
B4: PDIA4 (protein, UniProt P13667 21-645)
chain: VAGAEGPDEDSSNRENAIEDEEEEEEEDDDEEEDDLEVKEENGVLVLNDANFDNFVADKDTVLLEFYAPWCGHCKQFAPEYEKIANILKDKDPPIPVAKIDATSASVLASRFDVSGYPTIKILKKGQAVDYEGSRTQEEIVAKVREVSQPDWTPPPEVTLVLTKENFDEVVNDADIILVEFYAPWCGHCKKLAPEYEKAAKELSKRSPPIPLAKVDATAETDLAKRFDVSGYPTLKIFRKGRPYDYNGPREKYGIVDYMIEQSGPPSKEILTLKQVQEFLKDGDDVIIIGVFKGESDPAYQQYQDAANNLREDYKFHHTFSTEIAKFLKVSQGQLVVMQPEKFQSKYEPRSHMMDVQGSTQDSAIKDFVLKYALPLVGHRKVSNDAKRYTRRPLVVVYYSVDFSFDYRAATQFWRSKVLEVAKDFPEYTFAIADEEDYAGEVKDLGLSESGEDVNAAILDESGKKFAMEPEEFDSDTLREFVTAFKKGKLKPVIKSQPVPKNNKGPVKVVVGKTFDSIVMDPKKDVLIEFYAPWCGHCKQLEPVYNSLAKKYKGQKGLVIAKMDATANDVPSDRYKVEGFPTIYFAPSGDKKNPVKFEGGDRDLEHLSKFIEEHATKLSRTKEEL
B5: LMAN1 (protein, UniProt P49257 31-510)
chain: DGVGGDPAVALPHRRFEYKYSFKGPHLVQSDGTVPFWAHAGNAIPSSDQIRVAPSLKSQRGSVWTKTKAAFENWEVEVTFRVTGRGRIGADGLAIWYAENQGLEGPVFGSADLWNGVGIFFDSFDNDGKKNNPAIVIIGNNGQIHYDHQNDGASQALASCQRDFRNKPYPVRAKITYYQNTLTVMINNGFTPDKNDYEFCAKVENMIIPAQGHFGISAATGGLADDHDVLSFLTFQLTEPGKEPPTPDKEISEKEKEKYQEEFEHFQQELDKKKEEFQKGHPDLQGQPAEEIFESVGDRELRQVFEGQNRIHLEIKQLNRQLDMILDEQRRYVSSLTEEISKRGAGMPGQHGQITQQELDTVVKTQHEILRQVNEMKNSMSETVRLVSGMQHPGSAGGVYETTQHFIDIKEHLHIVKRDIDNLVQRNMPSNEKPKCPELPPFPSCLSTVHFIIFVVVQTVLFIGYIMYRSQQEAAAKKFF
B6: Thioredoxin (protein, UniProt P10599 1-105)
chain: MVKQIESKTAFQEALDAAGDKLVVVDFSATWCGPCKMIKPFFHSLSEKYSNVIFLEVDVDDCQDVASECEVKCMPTFQFFKKGQKVGEFSGANKEKLEATINELV
B7: Peroxiredoxin 4 (protein, UniProt Q13162 38-271)
chain: WETEERPRTREEECHFYAGGQVYPGEASRVSVADHSLHLSKAKISKPAPYWEGTAVIDGEFKELKLTDYRGKYLVFFFYPLDFTFVCPTEIIAFGDRLEEFRSINTEVVACSVDSQFTHLAWINTPRRQGGLGPIRIPLLSDLTHQISKDYGVYLEDSGHTLRGLFIIDDKGILRQITLNDLPVGRSVDETLRLVQAFQYTDKHGEVCPAGWKPGSETIIPDPAGKLKYFDKLN

This assay concerns the target Anterior gradient 2 (AGR2), endogenous (human (endogenous in T47D, A549)) (UniProt O95994). The experiment in a line: affinity purification with mass spectrometry; T47D cells crosslinked in vivo with 0.6 mM DSP (control: no DSP); 400 ug lysate incubated overnight at 4 °C with biotinylated E7 peptide on streptavidin-agarose to capture endogenous AGR2 with its partners (F4 peptide as control); elution with 0.1 M glycine pH 2.5; LC-MS/MS with label-free quantification.
For ATP5H (from UniProt O75947 1-161), the binding entry is listed as “binds”. Then Calnexin (from UniProt P27824 21-592), with “binds”; and UGGG1 (from UniProt Q9NYU2 43-1555), with “binds”.

With TPR (from UniProt P12270 1-2363), the binding result is on record as “binds”. To Annexin A2 (from UniProt P07355 1-339) belongs “binds”.

“thioredoxin domain–containing protein 5 (from UniProt Q8NBS9 33-432)”: the binding result is “binds”. To “ATP synthase, H+ transporting, mitochondrial F1 complex, beta polypeptide (from UniProt P06576 48-529)” belongs “binds”; to “Peptidylprolyl isomerase B (cyclophilin B) (from UniProt P23284 34-216)”, “binds”. To “Prolyl 4-hydroxylase, beta polypeptide (PDIA1) (from UniProt P07237 18-508)” belongs “binds”; to “Endoplasmic reticulum protein 29 (from UniProt P30040 33-261)”, “binds”; to B1, “binds”. Then B2, with “binds”; and B3, with “binds”; and B4, with “binds”. Take B5: the binding entry is on record as “binds”. To B6 belongs “binds”; to B7, “binds”.
